Among the data in US20140271467A1 (Stanford University, published 2014) are binding values, retold here.

These are yes or no findings as the source states them, for the method shown. Some binding calls cover weakened binding; strength is not graded here.

The target of the test is T1, biotinylated human CD20 extracellular loop peptide (amino acids 165-185) (human).
T1 sequence (peptide, biotin at the C-terminus (printed as SEQ ID NO, 1-biotin)): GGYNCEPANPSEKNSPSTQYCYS
The test is described as follows: selection from the G4 library against the CD20 peptide.

B1: FN3CD20 clone displayed on the yeast surface (designed binder, not shown: large carriers)
chain: ASVSDVPRDLEVVAATPTSLLISWCRQRCADSYRITYGETGGNSPVQEFTVPGSWKTATISGLKPGVDYTITVYVVTHYYGWDRYSHPISINYRTGSHHHHHH
notes: also called one clone; this clone
Take B1: the binding entry was “binds”.
